# Test results reported in the supplement of paper PMC5407854, “Inhibitor of ppGalNAc-T3-mediated O-glycosylation blocks cancer cell invasiveness and lowers FGF23 levels” (eLife, 2017).
# Over roughly 1,700 compounds, “T3 sensor activation Q score (MG/GFP ratio z-score vs DMSO controls)” has its median near 0.25; the highest 2% begin near 1.9. The list shows a part of the results.
# System: ppGalNAc-T3 sensor
# Assay: T3 sensor activation Q score (MG/GFP ratio z-score vs DMSO controls) (SD units); higher = more sensor activation (inhibition of ppGalNAc-T3 glycosylation)
# Details: HEK293 sensor cells; 10 µM; 6 h
# Protocol: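 Cells were treated with compound at 10 uM for 6 h, then MG/GFP ratio was read by flow cytometry (10,000 cells per well, duplicate wells). Q = (R - R_neg)/SD_neg relative to DMSO vehicle controls; the signal rises when the glycosyltransferase is inhibited.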
row,Structure (SMILES),T3 sensor activation Q score
1,Clc1ccc(C(c2ccccc2Cl)C(Cl)Cl)cc1 (stereo not drawn),1.1
2,CCC(=Cc1ccc(CC)cn1)CC,-1.25
3,Cn1ncc2c(Sc3ccc(Cl)cc3)ncnc21,0.65
4,CN(C)Cc1cc(C(F)(F)F)ccc1C(O)(c1ccccc1)c1ccccc1,1.3
5,CCNc1nc(NC(C)C)nc(-c2ccncc2)n1,1.1
6,O=c1ccnc(Nc2ccc(Cl)cc2)[nH]1,0.15
7,Cc1c(NC(=O)Nc2c(Cl)cccc2Cl)c(=O)n(-c2ccccc2)n1C,0.1
8,CCOC(=O)c1nn(-c2ccccc2)cc1O,0.05
9,N/C(CC(=O)Nc1cc(C(F)(F)F)ccc1Cl)=N\O,0.4
10,CCCc1cc(=O)oc2c3c(c4c(c12)OC(C)(C)C=C4)O[C@H](C)[C@@H](C)[C@@H]3O,-0.8
11,COc1c(C=O)c2c(c(OC)c1OC)-c1ccc(OC)c(=O)cc1C(NC(C)=O)CC2 (stereo not drawn),4.1
12,O=c1nc(Oc2ccccc2)nc2ncccn12,-0.5
13,CCC(C)n1c(C)cc(=O)n1C(C)CC (stereo not drawn),-0.6
14,c1ccn(CCc2ccncc2)c1,0.75
15,CC1=NC(C)(C)CC2CCC(O)C12 (stereo not drawn),0.7
16,Nc1nc(Cl)cc(Nc2ccccc2Cl)n1,0.65
17,CN(C)c1ccc(/C=C/C(=O)c2cc(Cl)ccc2O)cc1,-1.65
18,NC1(N2SC(S)=C3CCCC=C32)CCCCC1,0.75
19,Cc1cccn2c(=S)[nH]nc12,-0.2
20,CCSc1nc(C)c(C)c(=O)[nH]1,-1.1
21,OC(COc1ccc(Cl)cc1)CN1CCN(c2cccc(Cl)c2)CC1 (stereo not drawn),-0.65

row,Structure (SMILES),T3 sensor activation Q score
1,CCOC(=O)/C(=N\O)C1=CSC2=NNC(C)(C)N12,-0.1
2,Oc1ccc(Cc2ccc(Cl)cc2)c(O)c1,-0.85
3,CCCCOc1ccc(OC(=O)Nc2cc(Cl)ccc2OC)cc1,0.9
4,COc1ccc(CC(=O)c2ccc(O)cc2O)cc1,-0.4
5,CCOC(=O)c1nc2sc3c(c2c(=O)[nH]1)CCCC3,1.55
6,CCOC(=O)CCCN(c1[nH]c(C)c(C)c1C#N)S(=O)(=O)c1ccc(C)cc1,-0.3
7,O=C(O)c1ccc2c(c1Sc1ccccc1)C(=O)c1ccccc1C2=O,0.45
8,C(=C\CSc1ccccn1)/CSc1ccccn1,0.8
9,O=C(Nc1ccc(Cl)c([N+](=O)[O-])c1)Nc1nc2ccccc2s1,0.3
10,Cc1cc(NC(=O)OC(C)C)ccc1-c1ccc(NC(=O)OC(C)C)cc1C,-0.7
11,CN(C(=O)c1ccncc1)c1ccccc1,0.2
12,O=c1[nH]c2nc(Cl)nc(Cl)c2[nH]1,0.2
13,CCOC(=O)c1cc(OCC)c2c(ccc3ccccc32)n1,1.85
14,Nn1c(Cc2ccccc2)nnc1Cc1ccccc1,0.55
15,O=C(O)CSc1nc2ccccc2s1,-0.1
16,CN(C)c1nc(Cl)nc2c1nc(Cl)n2C1CCCCO1 (stereo not drawn),1.5
17,S=P(N1CC1)(N1CC1)N1CC1,0.75
18,CC(C)c1ccc(-c2nc3ccccc3s2)cc1,0.3
19,CS/C(=N\S(=O)(=O)c1ccccc1)NNC(=O)c1c(-c2c(Cl)cccc2Cl)noc1C,0.65
20,CNC(=O)c1ccccc1Sc1ccc2c(/C=C/c3ccccn3)n[nH]c2c1,0.7
21,S=c1[nH]cc2cnccn12,-1.4

row,Structure (SMILES),T3 sensor activation Q score
1,Cc1ccc([N+](=O)[O-])cc1NC(=O)Nc1cccc(F)c1,0.45
2,O=Nc1c(-c2cccc([N+](=O)[O-])c2)nc2ncccn12,-0.1
3,NC(CSC1(c2cccc3ccccc23)c2ccccc2-c2ccccc21)C(=O)O (stereo not drawn),-0.55
4,O=C(c1ccc(OCCN2CCCCC2)cc1)c1c(-c2ccc(O)cc2)sc2cc(O)ccc12,2.7
5,O=C(O)c1ccccc1-n1c2ccccc2c2ccccc21,0.2
6,CSc1nc2cc(S(=O)(=O)N3CCCCC3)ccc2s1,0.05
7,ClCC(CNCc1ccccc1)c1ccccc1 (stereo not drawn),0.35
8,NS(=O)(=O)c1cc2c(cc1Cl)NC(Cc1ccccc1)NS2(=O)=O (stereo not drawn),1.65
9,Cc1ccc(N2CCN(CC(O)COc3cccc(C)c3)CC2)cc1 (stereo not drawn),-0.75
10,CNC1(C(N)=O)CCNCC1,-0.85
11,Cn1nc(SCc2ccccc2)c(=O)n(C(c2ccccc2)c2ccccc2)c1=O,-0.65
12,O=C(c1ccccc1)C1C(c2ccccc2)C1[N+](=O)[O-] (stereo not drawn),1.7
13,NC(=O)c1cc(C(N)=O)nc(Cl)n1,-0.8
14,CN(/N=N/c1nc[nH]c1C(=O)NN)C1CCCCC1,1.2
15,O=C1CSC(c2cccs2)N1c1nncs1 (stereo not drawn),0.05
16,O=[N+]([O-])c1cc2cccnc2c2ncccc12,-2.35
17,CCCn1cnc2c(Sc3c([N+](=O)[O-])ncn3C)nc(N)nc21,-0.25
18,S=c1nc[nH]c2nc[nH]c12,-0.9
19,COc1cccc(OCC(O)CN2CCN(c3ccc(Cl)cc3)CC2)c1 (stereo not drawn),-0.4
20,C=CCN1CCN(c2ccncc2S(=O)(=O)N2CCN(C)CC2)CC1,0.2
21,S=C(SCc1cc(Cl)cc2c1OCOC2)N1CCSCC1,-0.4

row,Structure (SMILES),T3 sensor activation Q score
1,CC(=O)Oc1ccc(OC(C)=O)c2c1CC(C)=C(C)C2,0.8
2,CCOc1nsc(OCC)n1,-0.75
3,CCOC(=O)c1cc(-c2ccccc2)nc2ccc(C)cc12,0.8
4,O=C1CCCc2cc3c(cc21)CC1(C3)Cc2cc3c(cc2C1)C(=O)CCC3,-1.45
5,S=c1[nH]c2ccc(Cl)cc2s1,1.2
6,CCOC(=O)C(C)c1c(C(=O)c2ccc(C)nc2)c2ccccc2n1C (stereo not drawn),-0.35
7,O=c1cc(-c2ccccc2)oc2ccc(O)cc12,0.15
8,O=c1[nH]c2c(cnn2-c2ccc(Cl)cc2)c(=O)n1-c1cccc(Cl)c1,1.75
9,OC(COc1cccc2ccccc12)CN1CCN(c2ccccc2Cl)CC1 (stereo not drawn),-0.2
10,Cn1ncc2c(Nc3ccccc3Cl)nc(Nc3ccccc3Cl)nc21,0.6
11,CN(C)c1ccc2c(c1)Sc1cc(N(C)C)ccc1N2C(=O)c1ccccc1,-0.3
12,CC1=C(c2ccccc2)C=NNCC1=O,0.2
13,Cc1ccccc1NC(=O)C(=O)Nc1ccccc1C,1
14,CSc1c(N(C)C)c(=O)c1=S,0.45
15,CCN(CC)CCN=c1c(C)nc(C#N)c(N)n1O,0.7
16,CN(C)c1nc(=NCc2ccco2)ss1,-1.15
17,O=c1cc(CO)[nH]nc1CO,-1.25
18,OC[C@@H]1CCC[C@H](n2cnc3c(=S)nc[nH]c32)O1,0.1
19,CCOc1cc2c(Cl)ncnc2c(OCC)c1OCC,0.35
20,O=C(NC(=S)Nc1cccc2c(O)cccc12)c1cccc(Br)c1,-0.75

# Some values from the list:
# `O=c1[nH]c2c(cnn2-c2ccc(Cl)cc2)c(=O)n1-c1cccc(Cl)c1` | T3 sensor activation Q score: 1.75
# `OC(COc1cccc2ccccc12)CN1CCN(c2ccccc2Cl)CC1` (stereo not drawn) | T3 sensor activation Q score: -0.2
# `Cc1ccccc1NC(=O)C(=O)Nc1ccccc1C` | T3 sensor activation Q score: 1
# `CCOC(=O)c1cc(-c2ccccc2)nc2ccc(C)cc12` | T3 sensor activation Q score: 0.8
# `CCOc1cc2c(Cl)ncnc2c(OCC)c1OCC` | T3 sensor activation Q score: 0.35
